# Source: publication PMC10722859
# Amino acid sequences for entries named in this document (tags omitted).
# UniProt P60880: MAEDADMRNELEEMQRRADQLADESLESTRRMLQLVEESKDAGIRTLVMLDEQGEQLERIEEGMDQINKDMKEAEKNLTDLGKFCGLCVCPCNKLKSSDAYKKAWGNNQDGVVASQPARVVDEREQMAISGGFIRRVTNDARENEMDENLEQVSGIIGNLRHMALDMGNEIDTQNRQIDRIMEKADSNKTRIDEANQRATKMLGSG
# UniProt P60879: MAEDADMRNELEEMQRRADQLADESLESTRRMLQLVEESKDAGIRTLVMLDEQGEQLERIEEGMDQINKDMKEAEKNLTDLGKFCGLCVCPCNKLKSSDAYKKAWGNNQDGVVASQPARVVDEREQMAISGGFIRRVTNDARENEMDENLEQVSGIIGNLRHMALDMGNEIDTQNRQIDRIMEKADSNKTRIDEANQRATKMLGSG
# Results are given in words; binding and its absence hold for the method and conditions named. In cells and extracts the contact can be indirect. Some entries that bind do so weakly or less than the wild type. For some assays here: Tags and fused reporters may be left off the sequences shown.
# Assays:
# [1] = molecular target: Myc-tagged wild-type (WT) SNAP25 (synaptosomal-associated protein 25) (UniProt P60880); assay: co-IP; HEK293T cells transfected with Flag-TNFAIP1 (full length or truncations) and Myc-SNAP25; IP with anti-Flag or anti-Myc antibody and protein A/G magnetic beads, IB with anti-Flag or anti-Myc
# [2] = molecular target: endogenous SNAP25 (HT22 cells) (mouse (endogenous in HT22)) (UniProt P60879); assay: co-IP; HT22 cell lysate, endogenous proteins; IP with anti-SNAP25 antibody, protein A/G magnetic beads
binding [1],binding [2],Binder
binds,,"Flag-tagged full-length (FL) TNFAIP1 (tumor necrosis factor α-induced protein 1) (protein, UniProt Q13829 1-316) MSGDTCLCPASGAKPKLSGFKGGGLGNKYVQLNVGGSLYYTTVRALTRHDTMLKAMFSGRMEVLTDKEGWILIDRCGKHFGTILNYLRDDTITLPQNRQEIKELMAEAKYYLIQGLVNMCQSALQDKKDSYQPVCNIPIITSLKEEERLIESSTKPVVKLLYNRSNNKYSYTSNSDDHLLKNIELFDKLSLRFNGRVLFIKDVIGDEICCWSFYGQGRKLAEVCCTSIVYATEKKQTKVEFPEARIYEETLNVLLYETPRVPDNSLLEATSRSRSQASPSEDEETFELRDRVRRIHVKRYSTYDDRQLGHQSTHRD"
,binds,"endogenous TNFAIP1 (HT22 cells) (protein, UniProt O70479 1-316) MSGDTCLCPASGAKPKISGFKGGGLGNKYVQLNVGGSLYYTTVRALTRHDTMLKAMFSGRMEVLTDKEGWILIDRCGKHFGTILNYLRDDTITLPQSRQEIQELMAEAKYYLIQGLVSTCQTALQDKKDSYQPVCNIPIITSLREEDRLIESSTKPVVKLLYNRSNNKYSYTSNSDDHLLKNIELFDKLSLRFNGRVLFIKDVIGDEICCWSFYGQGRKLAEVCCTSIVYATEKKQTKVEFPEARIYEETLNVLLYETPRVPDNSLLEATSRSRSQASPSEDEDTFELRDRVRRIHVKRYSTYDDRQLGHQSTHRD"
